The text below walks through data of article PMC10602884, “Distinct RPA functions promote eukaryotic DNA replication initiation and elongation”.

Sequences of proteins named here, by UniProt entry; tags and fusion partners are left off. A change or cut given only in a name is not applied to a line headed by its entry. Residues count along the entry.
UniProt P26754: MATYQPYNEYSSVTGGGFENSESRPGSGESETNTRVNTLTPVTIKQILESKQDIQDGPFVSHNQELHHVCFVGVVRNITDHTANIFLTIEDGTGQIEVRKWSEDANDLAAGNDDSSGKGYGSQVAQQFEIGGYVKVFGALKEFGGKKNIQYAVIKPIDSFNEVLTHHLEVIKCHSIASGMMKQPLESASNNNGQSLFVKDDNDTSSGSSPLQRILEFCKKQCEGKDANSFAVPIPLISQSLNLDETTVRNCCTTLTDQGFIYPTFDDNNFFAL
3xFlag-Rfa2^ΔWH: residues 1-202 of P26754
UniProt P22336: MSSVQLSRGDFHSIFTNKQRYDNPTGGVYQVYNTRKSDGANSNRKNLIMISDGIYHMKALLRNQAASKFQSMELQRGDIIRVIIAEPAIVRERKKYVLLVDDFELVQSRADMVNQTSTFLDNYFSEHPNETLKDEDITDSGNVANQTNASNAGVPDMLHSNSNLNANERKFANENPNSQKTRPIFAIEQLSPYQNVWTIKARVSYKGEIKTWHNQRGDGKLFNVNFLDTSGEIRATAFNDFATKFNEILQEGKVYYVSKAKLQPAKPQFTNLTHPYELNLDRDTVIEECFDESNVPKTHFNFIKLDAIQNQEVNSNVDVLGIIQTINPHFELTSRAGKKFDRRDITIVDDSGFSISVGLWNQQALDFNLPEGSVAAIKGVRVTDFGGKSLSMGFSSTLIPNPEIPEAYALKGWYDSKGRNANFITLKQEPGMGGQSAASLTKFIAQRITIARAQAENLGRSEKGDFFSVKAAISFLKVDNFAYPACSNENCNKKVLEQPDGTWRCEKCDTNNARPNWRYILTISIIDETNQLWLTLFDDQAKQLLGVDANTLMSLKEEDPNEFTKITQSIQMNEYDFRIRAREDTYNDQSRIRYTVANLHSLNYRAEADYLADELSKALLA
UniProt P26755: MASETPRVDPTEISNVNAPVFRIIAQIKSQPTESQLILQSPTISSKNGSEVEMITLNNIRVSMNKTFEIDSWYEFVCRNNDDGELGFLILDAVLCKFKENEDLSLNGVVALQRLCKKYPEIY

No constants are given. Whether binding was seen depends on the method and setting. Some results given as binding are weak or reduced against the parent protein; the word gives no strength.

For experiment [1], the target named is 3xFlag-Rfa2^ΔWH (S. cerevisiae) (UniProt P26754). The experiment in a line: co-purification + SEC; subunits co-expressed in yeast (yAP17); lysate bound to Flag resin through 3xFlag-Rfa2^ΔWH in Buffer C with 100 mM NaCl, eluted with 3xFlag peptide, then S200 Increase 10/300 in Buffer C with 200 mM NaCl and 1 mM EDTA.
Experiment [2] shares this target. The experiment in a line: co-purification; subunits co-expressed in yeast (yAP18); calmodulin column, then Flag affinity step, then heparin column.
Experiment [3] has as its target CBP-Rfa1 (largest subunit of replication protein A) (S. cerevisiae) (UniProt P22336). Nature of the experiment: co-purification; subunits co-expressed in yeast; lysate in Buffer C with 500 mM NaCl plus 2 mM CaCl2 bound to a calmodulin-affinity column through CBP-Rfa1, eluted with EDTA/EGTA, then HiTrap Heparin with a gradient from 50 mM to 1 M NaCl.
The target in experiment [4] is CBP-Rfa1^ΔOB-F (S. cerevisiae) (UniProt P22336). Described as above.

Turning to “CBP-Rfa1 (largest subunit of replication protein A) (from UniProt P22336 1-621)”, in experiment [1], the binding result was “binds”.
Take “CBP-Rfa1^ΔOB-F (from UniProt P22336 131-621) (domain or fragment)”: the binding entry in experiment [2] is “binds”.
Take “Rfa2 (middle subunit of replication protein A) (from UniProt P26754 1-273)”: the binding result in experiment [3] and in experiment [4] was “binds” in each case.
For “Rfa3 (smallest subunit of replication protein A), made in yeast (from UniProt P26755 1-122)”, the binding result in experiment [1], in experiment [2], in experiment [3] and in experiment [4] was “binds” throughout.
